Assay results reported in paper PMC10163288.
The list shows a part of the results.

B1: il2ra_site1_3nfp_normal_mot_HHH_b1_00630_af2_000000193_0001_42_55_H_._HHH_b2_03971_0001_0000200010_0000001_0 (protein)
chain: SSSSTEELHHLAKLVHEAYKALSEGNEEEVRELLEEARRLAEELNDKVARRLLEEIEKRLSSSSS
B2: il2ra_site2_3nfp_sap_15_mot_HHH_b2_04230_000000235_0001_39_52_H_._ems_p1-15H-GBL-16H-GABBL-16H_0382_0001_0001_0001_0001_0000300021_0000001_0_0001_af2pred_0001_a … (protein)
chain: SSSSSDREFRHIVESALRFAKLSEDEELRRIALDFARAVAQMGNDPELEREVEEVEEELSSSSSS
B3: il2ra_site1_1z92_sap_9_mot_HHH_b1_04604_af2_000000029_0001_42_56_H_._3020bb65e3c0c4c1750efda2a61ed53f_0001_1_af2_0001_0000300015_0000001_0_0001 (protein)
chain: SEEYLEEQLRRKLELGNIEDAARALFKFIAAAAGDPEQAEEFLEELLKRAGVPPEVIEKILEEAK
B4: il2ra_site2_3nfp_sap_15_mot_HHH_b1_02990_000000128_0001_41_58_H_._HHH_b1_03794_0001_0000400021_0000001_0_0001 (protein)
chain: SEAEEIIKLIAELLGTPPERVRERVEDAAEIVNRPPEEAAAYLLAQVALELGDPELEKEAKRLSR
B5: il2ra_site1_2b5i_normal_mot_HHH_b1_00983_000000007_0001_1_17_H_._HHH_b2_03390_0001_0000100008_0000001_0_af2pred_dldesign_0_af2pred (protein)
chain: SSSSDPYDEVEELYKEALRLYRAGKKEEAKKLLEKALELAEKAGDKVAVADLKYFLSLVKSSSSS
B6: il2ra_site1_2b5i_normal_mot_ems_3hM_3687_af2_000000248_0001_45_64_H_._HHH_b2_01457_af2_0001_0000200017_0000001_0_af2pred_dldesign_0_af2pred (protein)
chain: SSSSSPLDERVEAALARARELKEQGKIREALELLEKLHKELSELGLEDLEDRVYELASELSSSSS
B7: il2ra_site2_2erj_sap_17_mot_HHH_b1_00941_000000060_0001_45_58_H_._HHH_b2_05377_0001_0000700053_0000001_0_0001 (protein)
chain: SSSSTEEYHEVYRIVLELLREFNLSREDAAKLSELAEELLKRGVSLEEIEELLEEQAHRLSSSSS
B8: il2ra_site1_3nfp_sap_15_mot_16934e337390fad51c35c10e6cd388ee_0001_1_000000171_0001_52_65_H_._HHH_b2_07272_af2_0001_0000200009_0000001_0_0001_af2pred_0001_af2pre … (protein)
chain: SSSSSDNEVSRRIDELLKEALKIEDEEEVRRLLEEAQELAEEANSPIAERLVELYERQILSSSSS
B9: il2ra_site1_3nfp_sap_12_mot_HHH_b1_02434_000000128_0001_1_17_H_._HHH_b2_01122_0001_0000400019_0000001_1_0001_af2pred_0001_af2pred_1 (protein)
chain: SSSSDTTKEISEISREIIKLLHEGDEEEARRLIEELRELAEERNDETAKLFVERLKRRVNSSSSS
B10: il2ra_site1_1z92_normal_mot_43152d1d296b358565056a4a32fd9b81_0001_1_000000297_0001_52_65_H_._HEEHE_0134_0001_0000200031_0000001_0_af2pred_dldesign_0_af2pred (protein)
chain: SEEEVITEAIRYIAERVGVPRVEVKIENGKVTVTFHGDPERCAAAAKLITRLLDAAGIEAEVVVR
B11: il2ra_site1_1z92_sap_13_mot_HHH_b1_01765_000000215_0001_19_35_H_._HHH_b2_01532_0001_0000100002_0000001_0_0001_af2pred_0001_af2pred (protein)
chain: SSSSSSDFHEILELFEKAEKIKDKEEVKEILEEALKLAEEAGDEVTAELIEQMLERLKSSSSSSS
B12: il2ra_site2_2erj_normal_mot_HHH_b2_00593_000000044_0001_44_57_H_._HHH_b2_04281_af2_0001_0000300021_0000001_0 (protein)
chain: SSSSDFVREVFELLQELSRLVQEGDEEEVRRVAEEVRRLAEEAKSPNLEESVEYLERLLLSSSSS
B13: il2ra_site1_3nfp_sap_14_mot_119b7766384adbe86006a62bce89dba1_0001_af2_000000052_0001_18_32_H_._HHH_b2_00597_0001_0000100003_0000001_0_0001_af2pred_0001_af2pred_ … (protein)
chain: SSSSDEEEHRKVEEILEEAKHIEDPKEADEVLKEALRLAREINDPEAIRLVEEVLRRLAKSSSSS
B14: il2ra_site2_3nfp_normal_mot_HHH_b1_04862_af2_000000143_0001_39_56_H_._HHH_b2_01567_af2_0001_0000900042_0000001_1 (protein)
chain: SSSSDEEARELLEEAEELLKDERLAEEAHEILMRAAAIAFQEGNFELFAEITELLEEVVQSSSSS
B15: il2ra_site1_2b5i_sap_10_mot_HHH_b2_04463_000000268_0001_43_57_H_._HHH_b2_06355_af2_0001_0000200025_0000001_0_0001 (protein)
chain: SDEEALKMAIEDVSKFARIKEFEIETHNGKITVEVRGDDNAAKAAVRMIEQLARIAGIDLEVEVE
B16: il2ra_site1_3nfp_sap_13_mot_0eddeacbb14b769e73e254714f31e2f9_0001_af2_000000052_0001_37_51_H_._3685a7fc0315cffcf770f862f50b42b9_0001_1_0001_0000400028_0000001_0 … (protein)
chain: SDLEEEVRELIELIKEFAEERNSPVAKLYAELLEEAARRAEERNDERSLRYVLRSARLALRSGSS
B17: il2ra_site2_3nfp_normal_mot_HHH_b1_07543_000000150_0001_38_55_H_._HHH_b2_03463_0001_0000300019_0000001_0 (protein)
chain: SSSSSHQEEYLRAALLLAREAIERGDEEFARRLLKLVIKAAEDLGDEEVLEEAQRLLEEISSSSS
B18: il2ra_site2_2erj_sap_33_mot_3b06bd03f1c6bceadc68eab912867b79_0001_000000296_0001_36_50_H_._HHH_b1_00097_af2_0002_0000100006_0000001_0_0001 (protein)
chain: SSSSDEELEQVVEELVKEFNLDEYAKSFLERLLEALEEDGVSEEEIKKALKAAAEIVAKVSSSSS
B19: il2ra_site1_2b5i_sap_13_mot_HHH_b2_02828_af2_000000092_0001_43_56_H_._HHH_b1_04425_af2_0001_0000300015_0000001_0_0001_af2pred_dldesign_0_af2pred (protein)
chain: SSSSDPYDEVYDLASEALRLYKAGKKEEAKKLLEKALELAKKAKDEKLIKELEYLLSLVESSSSS

target: il2ra, P01589; assay: yeast display titration

Apparent Kd, inactive:
B1 no binding seen, B2 no binding seen, B3 no binding seen, B4 no binding seen, B5 no binding seen, B6 no binding seen, B7 no binding seen, B8 no binding seen, B9 no binding seen, B10 no binding seen, B11 no binding seen, B12 no binding seen, B13 no binding seen, B14 no binding seen, B15 no binding seen, B16 no binding seen, B17 no binding seen, B18 no binding seen, B19 no binding seen
